Results are given in words; binding and its absence hold for the method and conditions named. Binding can be weak; no strength is given.

The target in test [1] is T1, Lm GlnR C-tail peptide (L. monocytogenes).
T1 sequence (peptide): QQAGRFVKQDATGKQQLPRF
As to the kind of experiment: cryo-EM structure; GS (0.75-1.0 mg/mL) with 2.5 or 5 mM GlnR C-tail peptide, 30 min at rt; Buffer B (12.5 mM Tris pH 7.5, 20 mM glutamine, 5 mM MgCl2, 150 mM NaCl, 2.5% glycerol, 1 mM BME); both purified.

Test [2] has as its target T2, Pp GlnR C-tail peptide (P. polymyxa).
T2 sequence (peptide): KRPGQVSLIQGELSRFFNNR
The test is described as above.

Test [3] addresses T3, fluoresceinated Sa GlnR C-tail peptide (S. aureus).
T3 sequence (peptide, fluorescein on the N-terminus): KPIGETLPINRGDLSRFIK
Nature of the test: fluorescence polarisation; increasing Sa GlnR(1-87) titrated into 1 nM N-terminally fluoresceinated Sa GlnR C-tail peptide; both purified.

Test [4] has as its target T4, Sa GlnR C-tail peptide (S. aureus).
T4 sequence (peptide): KPIGETLPINRGDLSRFIK
Nature of the test: cryo-EM structure; GS (0.75-1.0 mg/mL) with 2.5 or 5 mM GlnR C-tail peptide, 30 min at rt; Buffer B (12.5 mM Tris pH 7.5, 20 mM glutamine, 5 mM MgCl2, 150 mM NaCl, 2.5% glycerol, 1 mM BME); both purified.

“Listeria monocytogenes glutamine synthetase (L. monocytogenes) (enzyme)”: in test [1], the binding result is “binds”.

In the case of “Paenibacillus polymyxa glutamine synthetase (P. polymyxa) (enzyme)”, the binding entry in test [2] is “binds”.

As to “Sa GlnR(1-87) (from UniProt Q53687) (domain or fragment)”, the binding entry in test [3] was “binds”.

Consider “Staphylococcus aureus glutamine synthetase (S. aureus) (enzyme)”, for which the binding result in test [4] is given as “binds”.

The values are drawn from paper PMC9249791, “Molecular dissection of the glutamine synthetase-GlnR nitrogen regulatory circuitry in Gram-positive bacteria” (Nature Communications, 2022).
